From patent US20150284723A1 (MEDICAL DIAGNOSTIC LABORATORIES, published 2015) come the findings set out here.

Chains of the proteins cited; added tags and fusions are not shown. Lines headed by an entry give the natural chain unless they say otherwise; changes in a name come on top.
UniProt P67775: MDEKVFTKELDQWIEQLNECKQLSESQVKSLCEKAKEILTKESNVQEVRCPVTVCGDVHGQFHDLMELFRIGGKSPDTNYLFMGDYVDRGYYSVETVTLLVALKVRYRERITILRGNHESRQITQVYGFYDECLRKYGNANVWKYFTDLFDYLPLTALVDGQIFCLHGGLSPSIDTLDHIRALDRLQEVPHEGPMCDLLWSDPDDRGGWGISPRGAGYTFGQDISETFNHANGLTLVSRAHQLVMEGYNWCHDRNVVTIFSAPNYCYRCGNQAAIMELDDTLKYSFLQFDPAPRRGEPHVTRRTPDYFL
UniProt P62714: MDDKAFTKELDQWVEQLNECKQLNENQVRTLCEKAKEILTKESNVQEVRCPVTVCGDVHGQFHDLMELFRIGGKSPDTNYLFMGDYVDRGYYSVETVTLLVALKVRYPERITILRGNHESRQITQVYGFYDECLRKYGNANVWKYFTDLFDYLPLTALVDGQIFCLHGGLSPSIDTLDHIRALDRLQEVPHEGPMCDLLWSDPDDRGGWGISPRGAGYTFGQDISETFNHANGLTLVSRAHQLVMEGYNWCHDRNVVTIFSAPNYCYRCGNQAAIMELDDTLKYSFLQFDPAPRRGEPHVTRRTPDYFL

The target in experiment [1] is FLAG-Ppp2ca (Homo sapiens (Human)) (UniProt P67775). Description: FLAG co-immunoprecipitation from co-transfected HEK293T cells, Western blot with anti-V5.
The target of experiment [2] is T1, FLAG-Ppp4c (Bos taurus (Bovine)) (UniProt A6H772).
T1 sequence: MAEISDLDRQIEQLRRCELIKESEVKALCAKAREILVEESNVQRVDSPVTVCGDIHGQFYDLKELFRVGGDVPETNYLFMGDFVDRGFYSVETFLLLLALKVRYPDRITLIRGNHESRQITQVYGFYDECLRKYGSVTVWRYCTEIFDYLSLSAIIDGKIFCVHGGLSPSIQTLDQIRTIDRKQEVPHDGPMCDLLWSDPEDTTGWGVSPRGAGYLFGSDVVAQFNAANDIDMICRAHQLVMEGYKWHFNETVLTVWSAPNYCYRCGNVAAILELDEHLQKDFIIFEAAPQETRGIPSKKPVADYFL
The experiment is described as above.

The target in experiment [3] is Ppp2cb, the beta isoform of the catalytic subunit of PP2A (human) (UniProt P62714). The experiment in a line: FLAG co-immunoprecipitation from ECC-1 lysate, Western blot (data not shown).
For experiment [4], the target named is Ppp2ca, the alpha isoform of the catalytic subunit of PP2A (endogenous) (human) (UniProt P67775). The experiment in a line: FLAG co-immunoprecipitation from ECC-1 lysate, Western blot with anti-Ppp2ca.
Experiment [5] concerns the target T2, Ppp4c, the catalytic subunit of PP4 (endogenous) (human) (UniProt P60510).
T2 sequence: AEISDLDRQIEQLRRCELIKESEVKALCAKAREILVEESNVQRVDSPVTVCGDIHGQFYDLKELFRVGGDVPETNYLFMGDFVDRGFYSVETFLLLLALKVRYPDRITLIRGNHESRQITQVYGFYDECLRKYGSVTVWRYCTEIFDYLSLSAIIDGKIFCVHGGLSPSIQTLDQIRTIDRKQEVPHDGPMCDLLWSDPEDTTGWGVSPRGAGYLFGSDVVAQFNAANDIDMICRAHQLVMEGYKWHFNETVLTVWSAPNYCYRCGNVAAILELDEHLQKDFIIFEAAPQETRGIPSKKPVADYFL
The experiment in a line: FLAG co-immunoprecipitation from ECC-1 lysate, Western blot.

Experiment [6] has as its target Ppp2ca, the alpha isoform of the catalytic subunit of PP2A (endogenous) (human) (UniProt P67775). The experiment is described as above.

Substitutions are numbered along the chain they refer to. Numbers in names are those of the source. No constants are given. Whether binding was seen depends on the method and setting. Binding seen in cells or lysates may run through a third protein. Some results given as binding are weak or reduced against the parent protein; the word gives no strength. Sequences can lack the tags named with a protein.

B1: V5-PME-1 S156A (enzyme, human, UniProt Q9Y570 1-386, looked up, not shown: small tags and cut ends)
chain: MSALEKSMHLGRLPSRPPLPGSGGSQSGAKMRMGPGRKRDFSPVPWSQYFESMEDVEVENETGKDTFRVYKSGSEGPVLLLLHGGGHSALSWAVFTAAIISRVQCRIVALDLRSHGETKVKNPEDLSAETMAKDVGNVVEAMYGDLPPPIMLIGHAMGGAIAVHTASSNLVPSLLGLCMIDVVEGTAMDALNSMQNFLRGRPKTFKSLENAIEWSVKSGQIRNLESARVSMVGQVKQCEGITSPEGSKSIVEGIIEEEEEDEEGSESISKRKKEDDMETKKDHPYTWRIELAKTEKYWDGWFRGLSNLFLSCPIPKLLLLAGVDRLDKDLTIGQMQGKFQMQVLPQCGHAVHEDAPDKVAEAVATFLIRHRFAEPIGGFQCVFPGC
Take B1: the binding result in experiment [1] and in experiment [2] was “binds” each time.

B2: FLAG-tagged PME-1 (wild-type protein methylesterase 1) (enzyme, human, UniProt Q9Y570 1-386, looked up, not shown: small tags and cut ends)
chain: B1 chain with A156S
With B2, the binding result in experiment [3] is given as “binds”.

B3: FLAG-tagged PME-1 S156A (catalytically inactive mutant) (enzyme, human, UniProt Q9Y570 1-386, looked up, not shown: small tags and cut ends)
chain: B1 chain
As to B3, the binding result in experiment [4], in experiment [5] and in experiment [6] was “binds” throughout.
